Results as given in article PMC12767095.
These are yes or no findings as the source states them, for the method shown. In cells and extracts the contact can be indirect. Here binding means that the protein was enriched with, or labelled near, the bait; the list need not be complete.

Chains of the proteins cited; added tags and fusions are not shown.
UniProt Q04206: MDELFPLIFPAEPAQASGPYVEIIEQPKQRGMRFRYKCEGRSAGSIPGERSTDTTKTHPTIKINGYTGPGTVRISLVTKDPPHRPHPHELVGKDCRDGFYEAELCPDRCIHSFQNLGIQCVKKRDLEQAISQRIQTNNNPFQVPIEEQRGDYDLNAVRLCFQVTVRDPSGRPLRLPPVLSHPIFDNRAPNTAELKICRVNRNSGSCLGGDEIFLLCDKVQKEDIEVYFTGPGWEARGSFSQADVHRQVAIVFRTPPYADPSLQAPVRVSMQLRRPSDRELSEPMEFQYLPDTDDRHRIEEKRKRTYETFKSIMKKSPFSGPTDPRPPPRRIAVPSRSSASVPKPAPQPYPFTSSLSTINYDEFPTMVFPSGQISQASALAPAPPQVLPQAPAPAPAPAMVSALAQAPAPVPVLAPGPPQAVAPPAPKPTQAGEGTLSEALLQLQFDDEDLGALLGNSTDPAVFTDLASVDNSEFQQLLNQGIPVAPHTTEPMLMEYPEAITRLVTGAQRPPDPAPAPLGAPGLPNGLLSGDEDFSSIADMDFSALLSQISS

B1: DZIP3 (enzyme, UniProt Q86Y13 1-1208)
chain: MDSLPDEFFVRHPAVEDQRKEETENKLEKSSGQLNKQENDIPTDLVPVNLLLEVKKLLNAINTLPKGVVPHIKKFLQEDFSFQTMQREVAANSQNGEEIVPALTLRFLITQLEAALRNIQAGNYTAHQINIGYYLTLLFLYGVALTERGKKEDYTEAENKFLVMKMMIQENEICENFMSLVYFGRGLLRCAQKRYNGGLLEFHKSLQEIGDKNDHWFDIDPTEDEDLPTTFKDLLNNFIKTTESNIMKQTICSYLDCERSCEADILKNTSYKGFFQLMCSKSCCVYFHKICWKKFKNLKYPGENDQSFSGKKCLKEGCTGDMVRMLQCDVPGIVKILFEVVRKDEYITIENLGASYRKLISLKITDTDIRPKISLKFNTKDEMPIFKLDYNYFYHLLHIIIISGTDIVRQIFDEAMPPPLLKKELLIHKNVLESYYNHLWTNHPLGGSWHLLYPPNKELPQSKQFDLCLLLALIKHLNVFPAPKKGWNMEPPSSDISKSADILRLCKYRDILLSEILMNGLTESQFNSIWKKVSDILLRLGMMQEDIDKVKENPIENISLDYHQLSVYLGIPVPEIIQRMLSCYQQGIALQSITGSQRIEIEELQNEEEELSPPLMEYNINVKSHPEIQFAEINKDGTSIPSESSTESLKDLQEVKSKQRKKKKTKNKKNKDSKEDQVPYVVEKEEQLRKEQANPHSVSRLIKDDASDVQEDSAMEDKFYSLDELHILDMIEQGSAGKVTTDYGETEKERLARQRQLYKLHYQCEDFKRQLRTVTFRWQENQMQIKKKDKIIASLNQQVAFGINKVSKLQRQIHAKDNEIKNLKEQLSMKRSQWEMEKHNLESTMKTYVSKLNAETSRALTAEVYFLQCRRDFGLLHLEQTEKECLNQLARVTHMAASNLESLQLKAAVDSWNAIVADVRNKIAFLRTQYNEQINKVKQGFALSTLPPVQLPPPPPSPEILMQQFLGRPLVKESFFRPILTVPQMPAVCPGVVSATGQPRAPLMTGIAWALPAPVGDAVPPSAGLRSDPSIMNWERITDRLKTAFPQQTRKELTDFLRKLKDAYGKSLSELTFDEIVCKISQFIDPKKSQSQGKSVSNVNCVSPSHSPSQPDAAQPPKPAWRPLTSQGPATWEGASNPDEEEEEEEPCVICHENLSPENLSVLPCAHKFHAQCIRPWLMQQGTCPTCRLHVLLPEEFPGHPSRQLPKI
B2: STUB1, Q9UNE7 1-303 (enzyme)
chain: MKGKEEKEGGARLGAGGGSPEKSPSAQELKEQGNRLFVGRKYPEAAACYGRAITRNPLVAVYYTNRALCYLKMQQHEQALADCRRALELDGQSVKAHFFLGQCQLEMESYDEAIANLQRAYSLAKEQRLNFGDDIPSALRIAKKKRWNSIEERRIHQESELHSYLSRLIAAERERELEECQRNHEGDEDDSHVRAQQACIEAKHDKYMADMDELFSQVDEKRKKRDIPDYLCGKISFELMREPCITPSGITYDRKDIEEHLQRVGHFDPVTRSPLTQEQLIPNLAMKEVIDAFISENGWVEDY

What was measured:
[1] = target: RELA (human (endogenous in TFE301-1)) (UniProt Q04206); experiment: affinity purification with mass spectrometry; IP of RELA from TFE301-1 cells with an anti-RELA antibody, compared with an IgG control; MS on a Q-Exactive
[2] = target: RELA (human (endogenous in TFE301-1)), Q04206; experiment: as above; conditions: remark: other sources report otherwise

Row | binding [1] | binding [2] | Binder
1 | binds |  | B1
2 |  | binds | B2
